In all, about 300,000 compounds went through this assay and about 5,400 (1.8%) were called active. This list was built around the results that the source calls inconclusive (neither active nor inactive); the mix of calls is not that of the screen. Calls follow the shape of the full dose curve; tested in HEK293 cells. A potency beside an inconclusive call is a rough fit, not a confirmed value.
Assay: qHTS for inhibitors of binding or entry into cells for Marburg Virus
Conditions: Marburg virus pseudotyped entry inhibition, cell reporter; activity change, negative = inhibition: at 37.8 µM (top of the series) unless noted
% is scaled to controls: 0 for no effect and ±100 for the full control effect; potency is read from the fitted curve at half-maximal effect.

Q: With `C/C(=N\O)c1ccc(Cl)c(Cl)c1` as the compound, how does the “activity change, negative = inhibition” value read?
A: inactive: -23.8%

Q: For `COc1ccccc1NC(=S)N(Cc1ccco1)Cc1cc2cc(C)cc(C)c2[nH]c1=O`, which Potency is on record?
A: inconclusive: 25.1 µM [inhibitor, single point]

Q: For `Fc1ccc(NC(=S)NC2CCCCC2)c(F)c1F`, which “activity change, negative = inhibition” value is on record?
A: inactive: -22.5%

Q: With `COC(=O)c1ccccc1NC(=O)C1CCN(C(=O)c2ccc(OC)cc2)CC1` as the compound, how does the “activity change, negative = inhibition” value read?
A: inactive: 14.9%

Q: For `CC(C)c1ccc(NC2=NCC(=O)N2Cc2cccs2)cc1`, which Potency is on record?
A: inconclusive: 35.5 µM [inhibitor, single point]

Q: With `CCCCOc1ccccc1C1C(C(=O)OC)=C(C)N(C)C(C)=C1C(=O)OC` as the compound, how does the Potency read?
A: inconclusive: 17.8 µM [inhibitor, single point]

Q: With `Cc1ccc(N2CCN(S(=O)(=O)c3ccc(Cl)s3)CC2C)cc1` (stereo not given) as the compound, how does the “activity change, negative = inhibition” value read?
A: inactive: -12.4%

Q: With `CC1CCN(c2ccccc2NC(=S)NC(=O)C(C)(C)C)CC1` as the compound, how does the Potency read?
A: inconclusive: 14.6 µM [inhibitor, partial curve, poor fit]

Q: For `O=C(CN1C(=O)CSC1=O)Nc1ccc(N2CCOCC2)cc1`, which Potency is on record?
A: inconclusive: 35.5 µM [activator, single point]

Q: With `C/C(=N\NC(=O)c1ccc(F)cc1)c1ccc(N2CCOCC2)cc1` as the compound, how does the Potency read?
A: inconclusive: 2 µM [inhibitor, single point]

Q: Which Potency does the source give for `CCOc1cccc(C2CC(=O)Nc3cc4c(cc32)OCCO4)c1` (stereo not given) here?
A: active: 2.24 µM

Q: Which “activity change, negative = inhibition” value does the source give for `O=C1c2ccccc2C(=O)N1n1c(=O)[nH]c2ccccc2c1=O` here?
A: inactive: 4.43%

Q: For `Cc1onc(-c2c(Cl)cccc2Cl)c1C(=O)NCc1ccco1`, which Potency is on record?
A: inconclusive: 3.16 µM [inhibitor, partial curve, poor fit]

Q: For `CC(OCCN1CCCC1)(c1ccc(F)cc1)c1ccc(F)cc1`, which Potency is on record?
A: inconclusive: 10 µM [inhibitor, partial curve, poor fit]

Q: Which Potency does the source give for `CC(C)c1ccc(N(C(=O)c2snc(C(N)=O)c2N)C(C(=O)NC2CCCC2)c2ccncc2)cc1` (stereo not given) here?
A: inconclusive: 12.6 µM [inhibitor, partial curve, poor fit]

Q: Which Potency does the source give for `Cn1c(CSc2nnc(SCc3ccccc3)s2)nc2ccccc21` here?
A: inconclusive: 0.411 µM [inhibitor, partial curve, poor fit]

Q: With `C/C(=N\O)C1(C)N(O)C(C)(C)C(c2ccco2)=[N+]1[O-]` (stereo not given) as the compound, how does the “activity change, negative = inhibition” value read?
A: inactive: 1.3% [at 46.1 µM]

Q: For `CC(=O)N1c2ccccc2CC1C(=O)NCc1cccc(Cl)c1` (stereo not given), which Potency is on record?
A: inconclusive: 31.6 µM [activator, single point]

Q: Which Potency does the source give for `O=C(NNc1nc2cc3c(cc2s1)OCCO3)c1ccccc1` here?
A: inconclusive: 7.94 µM [inhibitor, partial curve, poor fit]

Q: With `O=C(CCCn1c(=O)[nH]c2ccsc2c1=O)N1CCN(c2ccccn2)CC1` as the compound, how does the Potency read?
A: inconclusive: 3.66 µM [inhibitor, single point]

Q: For `CC(=O)N(Cc1cc2c(C)cc(C)cc2[nH]c1=O)C1CCCCC1`, which Potency is on record?
A: inconclusive: 5.62 µM [inhibitor, full curve, poor fit]

Q: For `CCOC(=O)c1c(-c2ccccc2)csc1NC(=O)c1nn(CC)cc1Br`, which Potency is on record?
A: active: 10.3 µM

Q: For `CCN(CC)c1ccc(/C=C2\C(=O)c3ccc(C(=O)O)cc3C2=O)cc1`, which Potency is on record?
A: inconclusive: 2 µM [activator, partial curve, poor fit]

Q: Which Potency does the source give for `COc1ccc(CCNC(=O)CSCc2c(F)cccc2Cl)cc1OC` here?
A: inconclusive: 35.5 µM [inhibitor, single point]

Q: For `CCOc1ccc(/C=C2\SC(=S)N(CC(=O)N(CCO)C(C)(C)C)C2=O)cc1`, which Potency is on record?
A: inconclusive: 2 µM [inhibitor, partial curve, poor fit]

Q: With `CCc1ccc(NS(=O)(=O)c2c(C)nc3sc(CC)nn3c2=O)cc1` as the compound, how does the Potency read?
A: inconclusive: 12.6 µM [inhibitor, single point]

Q: Which Potency does the source give for `O=C(CN(Cc1ccc(Br)cc1)S(=O)(=O)c1ccccc1)NCC1CCCO1` (stereo not given) here?
A: inconclusive: 0.447 µM [activator, full curve]

Q: For `COc1cc(NC(=O)COc2ccc(C)c(C)c2)ccc1NC(=O)c1ccco1`, which “activity change, negative = inhibition” value is on record?
A: inactive: 23.7% [at 46.1 µM]

Q: With `COc1nc(Nc2cccc(C)c2)nc(N2CCCCC2)n1` as the compound, how does the Potency read?
A: inconclusive: 3.98 µM [inhibitor, partial curve, poor fit]

Q: Which Potency does the source give for `CC1(C)CC(=O)C(C2C3=C(CC(C)(C)CC3=O)Oc3ccc4ccccc4c32)C(=O)C1` (stereo not given) here?
A: inconclusive: 12.6 µM [activator, single point]

Q: For `O=C(O)c1ccc(NS(=O)(=O)c2ccc3c(c2)C(=O)c2ccccc2C3=O)cc1`, which Potency is on record?
A: inconclusive: 31.6 µM [activator, single point]

Q: Which Potency does the source give for `CCN(CC)S(=O)(=O)c1ccc(-c2ccc(S(=O)(=O)N(CC)CC)cc2)cc1` here?
A: inconclusive: 20.6 µM [inhibitor, single point]

Q: Which Potency does the source give for `COc1cc(/C=N\NC(=O)c2ccc(-c3ccccc3)cc2)cc(Br)c1O` here?
A: inconclusive: 6.31 µM [inhibitor, partial curve]

Q: For `O=C(c1cccc(NS(=O)(=O)c2ccc(F)c(F)c2)c1)N1CCN(C(c2ccccc2)c2ccccc2)CC1`, which Potency is on record?
A: inconclusive: 15.8 µM [inhibitor, partial curve, poor fit]

Q: For `Cc1ccc(NC(=O)c2ccccc2F)cc1S(=O)(=O)N1CCCCCC1`, which “activity change, negative = inhibition” value is on record?
A: inactive: -24% [at 46.1 µM]

Q: With `O=C(O)CCC(=O)Nc1cccc(-c2csc(-c3ccccc3)n2)c1` as the compound, how does the Potency read?
A: inconclusive: 20 µM [inhibitor, partial curve, poor fit]

Q: For `Cc1ccccc1OCC(=O)Nc1ccc2nc(SCc3ccccc3)sc2c1`, which “activity change, negative = inhibition” value is on record?
A: inactive: 14.4% [at 46.1 µM]

Q: With `Cc1ccccc1C(=O)N1CCN(c2ccc(NC(=O)c3ccc4c(c3)OCCO4)cc2)CC1` as the compound, how does the Potency read?
A: active: 5.01 µM

Q: For `O=C(O)c1ccc(NC(=S)N2CCCCC2)cc1`, which Potency is on record?
A: inconclusive: 5.62 µM [activator, single point]

Q: For `Cc1cccc(N(CC(O)CN2CCCC2)S(=O)(=O)c2ccccc2)c1` (stereo not given), which Potency is on record?
A: inconclusive: 14.1 µM [inhibitor, single point]

Q: With `COc1ccc(C(=O)NC2CCCc3c2cnn3-c2cccc(C)c2C)c(OC)n1` (stereo not given) as the compound, how does the Potency read?
A: active: 0.708 µM

Q: Which Potency does the source give for `COC(=O)c1ccccc1NC(=O)CN(C)Cc1ccccc1` here?
A: inconclusive: 10 µM [inhibitor, partial curve, poor fit]

Q: With `COc1ccc(OC)c(N2CC(O)(c3cccs3)[N+]3=C2SCCC3)c1` (stereo not given) as the compound, how does the activity change, negative = inhibition read?
A: inconclusive: 1.4% [activator]

Q: Which Potency does the source give for `O=C(NC(Cc1c[nH]c2ccccc12)C(=O)N/N=C/c1ccc(Cl)cc1)c1cccs1` (stereo not given) here?
A: inconclusive: 35.5 µM [inhibitor, single point]

Q: Which Potency does the source give for `COc1ccc2nc(Nc3nc(C)c(CCC(C)C)c(=O)[nH]3)nc(C)c2c1` here?
A: inconclusive: 23.1 µM [inhibitor, partial curve, poor fit]

Q: For `Cc1ccc(S(=O)(=O)Oc2ccccc2C=C2C(=O)N(C)C(=O)N(C)C2=O)cc1`, which Potency is on record?
A: inconclusive: 7.08 µM [activator, partial curve, poor fit]

Q: With `COc1ccc(Cl)cc1NS(=O)(=O)c1cc(Br)cnc1N` as the compound, how does the Potency read?
A: inconclusive: 10 µM [inhibitor, partial curve]

Q: Which “activity change, negative = inhibition” value does the source give for `Cc1cc(C(F)(F)F)nc(SCC(=O)NC2CCCCC2)n1` here?
A: inactive: 12.4% [at 46.1 µM]

Q: Which “activity change, negative = inhibition” value does the source give for `O=C(COc1ccc(Br)cc1CO)N1CCCc2ccccc21` here?
A: inactive: 0.65% [at 46.1 µM]

Q: For `Fc1ccc2c(c1)C(c1ccncc1)=NNC(c1ccccc1)=N2`, which Potency is on record?
A: inconclusive: 35.5 µM [inhibitor, single point]

Q: For `Cc1cccc(N2CCN(C(=O)Cc3ccc(-n4c(=O)[nH]c5ccsc5c4=O)cc3)CC2)c1C`, which Potency is on record?
A: inconclusive: 14.1 µM [inhibitor, partial curve]

Q: Which Potency does the source give for `C[N+](C)(C)CC1CCCC(C[N+](C)(C)C)C1=O` (stereo not given) here?
A: active: 10 µM

Q: For `CCN1C(=O)[C@@H]2[C@H]3[C@H](O)[C@H](O)CC(=NOCC[C@@H]4C=C[C@H](OC(C)=O)[C@@H](COC(C)=O)O4)[C@@H]3CC[C@H]2C1=O`, which “activity change, negative = inhibition” value is on record?
A: inactive: -14.6% [at 14.2 µM]

Q: Which Potency does the source give for `CCc1ccccc1NC(=O)N1CCc2c([nH]c3ccccc23)C1c1ccc(C)cc1` (stereo not given) here?
A: inconclusive: 28.2 µM [inhibitor, single point]

Q: For `Cn1c(=O)n(CCc2ccccc2)c(=O)c2c1nc1n2CCN1Cc1ccco1`, which Potency is on record?
A: inconclusive: 25.9 µM [inhibitor, partial curve, poor fit]

Q: For `COC(=O)C1=C(N)Oc2cc(C)[nH]c(=O)c2[C@@H]1c1ccncc1`, which “activity change, negative = inhibition” value is on record?
A: inactive: 2.83%

Q: With `Cc1c(NC(=O)CSc2nnc3c4ccccc4n(CCc4ccccc4)c3n2)c(=O)n(-c2ccccc2)n1C` as the compound, how does the Potency read?
A: inconclusive: 1 µM [inhibitor, full curve, poor fit]

Q: Which Potency does the source give for `Cc1ccc(S(=O)(=O)N(CC(=O)NCCc2ccc(Cl)cc2)c2ccccc2C)cc1` here?
A: inconclusive: 7.94 µM [inhibitor, partial curve, poor fit]

Q: With `O=C(CN1CCN(c2ccc(F)cc2)CC1)N1N=CCC1c1ccccc1` (stereo not given) as the compound, how does the “activity change, negative = inhibition” value read?
A: inactive: -8.88%

Q: With `CCOC(=O)c1c(-c2ccc(OC)cc2)csc1NC(=O)CCN1C(=O)c2ccccc2C1=O` as the compound, how does the “activity change, negative = inhibition” value read?
A: inactive: -19.9%

Q: Which Potency does the source give for `CCOC(=O)C1(CCCc2ccccc2)CCN(C(=O)c2cnn(CC)c2)CC1` here?
A: inconclusive: 5.62 µM [activator, single point]

Q: For `CSc1ccc(Cl)c(C(=O)NCCOc2cc(C)ccc2C(C)C)c1`, which Potency is on record?
A: inconclusive: 29.1 µM [inhibitor, single point]

Q: Which Potency does the source give for `Cc1c(NC(=O)c2cc(-c3cccc(O)c3)on2)c(=O)n(-c2ccccc2)n1C` here?
A: inconclusive: 2.51 µM [inhibitor, full curve, poor fit]

Q: Which Potency does the source give for `O=C(Oc1ccc(-c2ccccc2)cc1)N1CCCCC1` here?
A: inconclusive: 2.51 µM [activator, partial curve, poor fit]

Q: For `COc1ccc(N2CCN(C(=O)C3CCN(S(=O)(=O)c4ccccc4)CC3)CC2)cc1`, which Potency is on record?
A: inconclusive: 7.94 µM [inhibitor, partial curve]
